test: soluble on expression in E. coli; label from the status in PepcDB or PDB records

Row | Sequence | soluble on expression in E. coli
1 | MSQHKFLFTSESVSEGHPDKMCDQISDAVLDAHLAQDPHAKVACGFDYKTCNVLVALEQQSPEIAAGVHVDKDSDDVGAGDQGIMFGYATDETEEAMPLTLLLSHKLNRKLHELRRSGELEWVRPDSKTQVTIEYASEGGACIPLRVHTVVISTQHSPDISLDDLRKELIVKVIKAVIPANLIDDKTIYHLNPCGSFIIGGPMGDAGLTGRKIIVDTYGGWGAHGGGAFSGKDPTKVDRSAAYAARWVAKSLVKSGLCRRCLVQVSYAIGVAKPLSVMVFSFGTSALNEGELLKIVNDNFDLRPGMIIKDLDLKKPIYEPTAENGHFGHNEFPWEQPRHLQIDVELLKKIGGKTISNGNGIAH | not soluble
2 | MSTEHVSNVYSVESLLSNVEKSSVSPTESIEDRNEFMITEDVMSSWQRMAATISLQQKLLMMQQTMPRPPPVNILGNFPFGFLNAPMFWQQYLRSMAMGIIPQNPESPSASVWNRTPTPPVEIKPFHCQKCTKLFSTIAALEQHQQVHVSDKQFECKQCGKTFKRSSTLSTHLLIHSDTRPYPCEYCGKRFHQKSDMKKHTYIHTGEKPHKCTVCGKAFSQSSNLITHTRKHTGFKPFACDVCGRTFQRKVDRRRHRESHHPGHPEECVSASQISSDLSPKGYMTPPTSNGYLDSSDEFLNVFRLPAELLAIKAEMGEEMEEADDEEEKVLNLSVS | not soluble
3 | MSVEEGMEVELKSEKMDLDDNIPDFVKETVERSGKNPMSLFSELYVHMTGNTPVFDFYNRNQPNGSMKFICVVILNGERIEGNVKSKKKEAKVSCSLKGLEVVLKHVSEYVVPAVKFEEKTTFFEMLREHTYAKFYELCKNNALIYGFEKVIASVFLKINGNLQIIALSTGNKGLRGDKIVNDGTALIDCHAEILARRGLLRFLYSEVLKFSTEPPNSIFTKGKNALVLKPGISFHLFINTAPCGVARIDKKLKPGTSDDLQNSSRLRFKIDKGMGTVLGGASEFEAPQTFDGIMMGERMRTMSCSDKLLRANVLGVQGAILSHFIDPIYYSSIAVAELNNADRLRKAVYSRAATFKPPAPFHVQDVEIGECQVEDTEQSTSAAARSTISSMNWNLADGNTEVVRTSDGMVHDKDMSGADITTPSRLCKKNMAELMITICTLTKTSVDYPISYEELKAGSQEYAAAKKSFITWLRQKDLGIWQRKPREFQMFTIN | not soluble
4 | SNALEVKPEINFVNIGERCNVAGSRKFLRLVNEKKYDEALSIARQQVEDGALVIDVNMDDGLLDARTEMTTFLNLIMSEPEIARVPVMIDSSKWEVIEAGLKCLQGKSIVNSISLKEGEEVFLEHARIIKQYGAATVVMAFDEKGQADTAARKIEVCERAYRLLVDKVGFNPHDIIFDPNVLAVATGIEEHNNYAVDFIEATGWIRKNLPGAHVSGGVSNLSFSFRGNNYIREAMHAVFLYHAIQQGMDMGIVNPGTSVLYSDIPADTLEKIEDVVLNRRPDAAERLIELAEALKETMGG | soluble
5 | TRDAALPGSHSTHGFYENYEPKEILGRGVSSVVRRCIHKPTCKEYAVKIIDVTGGGSFSAEEVQELREATLKEVDILRKVSGHPNIIQLKDTYETNTFFFLVFDLMKKGELFDYLTEKVTLSEKETRKIMRALLEVICALHKLNIVHRDLKPENILLDDDMNIKLTDFGFSCQLDPGEKLREVCGTPSYLAPEIIECSMNDNHPGYGKEVDMWSTGVIMYTLLAGSPPFWHRKQMLMLRMIMSGNYQFGSPEWDDYSDTVKDLVSRFLVVQPQKRYTAEEALAHPFFQQYVVEEVRHF | soluble

Reference: the DeepSol protein solubility set
